Results are given in words; binding and its absence hold for the method and conditions named. Binding seen in cells or lysates may run through a third protein. A result given as binding can be weak or reduced; the word gives no strength.
Tests used:
Assay in all cases: co-IP; NIH 3T3 cells transfected with HA/FLAG-tagged E7 plasmids, harvested 48 hr post-transfection in EBC buffer (50mM Tris-Cl pH 8.0, 150mM NaCl, 0.5% NP-40, 0.5mM EDTA); anti-HA agarose beads; 3 mg lysate per IP; western blot for PTPN14, pRb, FLAG
[1] = molecular target: N-terminally HA/FLAG epitope-tagged MmuPV1 E7 (murine papillomavirus (MmuPV1))
[2] = molecular target: C-terminally HA/FLAG epitope-tagged MmuPV1 E7 (murine papillomavirus (MmuPV1))
[3] = molecular target: C-terminally tagged MmuPV1 E7^K81S (murine papillomavirus (MmuPV1))
[4] = molecular target: N-terminally tagged MmuPV1 E7^K81S (murine papillomavirus (MmuPV1))

Binder	binding [1]	binding [2]	binding [3]	binding [4]
Protein Tyrosine Phosphatase Non-Receptor Type 14 (PTPN14) (protein, UniProt Q62130 1-1189) MPFGLKLRRTRRYNVLSKNCFVTRIRLLDSNVIECTLSVESTGQECLEAVAQRLELRETHYFGLWFLSKSQQARWVELEKPLKKHLDKFANEPLLFFGVMFYVPNVSRLQQEATRYQYYLQVKKDVLEGRLRCSLEQVIRLAGLAVQADFGDYNQFDSQEFLREYVLFPMDLAMEEAALEELTQKVAQEHKAHSGILPAEAELMYINEVERLDGFGQEIFPVKDSHGNSVHLGIFFMGIFVRNRVGRQAVIYRWNDIGSVTHSKAAILLELIDKEETALFHTDDIENAKYISRLFTTRHKFYKQNKICTEQSNSPPPIRRQPTWSRSSLPRQQPYILPPMHVQCSEHYSETHTSQDSIFPGNEEALYCRSHNSLDLNYLNGTVTNGSVCSVHSVNSLSCSQSFIQASPVSSNLSIPGSDIMRADYIPSHRHSTIIVPSYRPTPDYETVMRQMKRGLMHADSQSRSLRNLNIINTHAYNQPEELVYSQPEMRERHPYTVPYAHQGCYGHKLVSPSDQMNPQNCAMPIKPGASSISHTVSTPELANMQLQGAQHYSTAHMLKNYLFRPPPPYPRPRPATSTPDLASHRHKYVSGSSPDLVTRKVQLSVKTFQEDSSPVVHQSLQEVSEPLTATKHHGGGGGTVNKRHSLEVMNSMVRGMEAMTLKSLNIPMARRNTLREQGPSEETGGHEVHGLPQYHHKKTFSDATMLIHSSESEEEEETLEAAPQVPVLREKVEYSAQLQAALARIPNRPPPEYPGPRKSVSNGALRQDQGTPLPAMARCRVLRHGPSKALSVSRAEQLAVNGASLGPSISEPDLTSVKERVKKEPVKERPVSEMFSLEDSIIEREMMIRNLEKQKMTGPQAQKRPLMLAALNGLSVARVSGREDGHHDATRVPIDERLRALKKKLEDGMVFTEYEQIPNKKANGVFSTATLPENAERSRIREVVPYEENRVELIPTKENNTGYINASHIKVVVGGSEWHYIATQGPLPHTCHDFWQMVWEQGVNVIAMVTAEEEGGRTKSHRYWPKLGSKHSSATYGKFKVTTKFRTDSGCYATTGLKVKHLLSGQERTVWHLQYTDWPHHGCPEDVQGFLSYLEEIQSVRRHTNSVLEGIRTRHPPIVVHCSAGVGRTGVVILSELMIYCLEHNEKVEVPTMLRFLREQRMFMIQTIAQYKFVYQVLVQFLQNSRLI	binds	binds	–	–
retinoblastoma tumor suppressor (pRB) (protein, UniProt P13405 1-921) MPPKAPRRAAAAEPPPPPPPPPREDDPAQDSGPEELPLARLEFEEIEEPEFIALCQKLKVPDHVRERAWLTWEKVSSVDGILEGYIQKKKELWGICIFIAAVDLDEMPFTFTELQKSIETSVYKFFDLLKEIDTSTKVDNAMSRLLKKYNVLCALYSKLERTCELIYLTQPSSALSTEINSMLVLKISWITFLLAKGEVLQMEDDLVISFQLMLCVVDYFIKFSPPALLREPYKTAAIPINGSPRTPRRGQNRSARIAKQLENDTRIIEVLCKEHECNIDEVKNVYFKNFIPFINSLGIVSSNGLPEVESLSKRYEEVYLKNKDLDARLFLDHDKTLQTDPIDSFETERTPRKNNPDEEANVVTPHTPVRTVMNTIQQLMVILNSASDQPSENLISYFNNCTVNPKENILKRVKDVGHIFKEKFANAVGQGCVDIGVQRYKLGVRLYYRVMESMLKSEEERLSIQNFSKLLNDNIFHMSLLACALEVVMATYSRSTLQHLDSGTDLSFPWILNVLNLKAFDFYKVIESFIKVEANLTREMIKHLERCEHRIMESLAWLSDSPLFDLIKQSKDGEGPDNLEPACPLSLPLQGNHTAADMYLSPLRSPKKRTSTTRVNSAANTETQAASAFHTQKPLKSTSLALFYKKVYRLAYLRLNTLCARLLSDHPELEHIIWTLFQHTLQNEYELMRDRHLDQIMMCSMYGICKVKNIDLKFKIIVTAYKDLPHAAQETFKRVLIREEEFDSIIVFYNSVFMQRLKTNILQYASTRPPTLSPIPHIPRSPYKFSSSPLRIPGGNIYISPLKSPYKISEGLPTPTKMTPRSRILVSIGESFGTSEKFQKINQMVCNSDRVLKRSAEGGNPPKPLKKLRFDIEGADEADGSKHLPAESKFQQKLAEMTSTRTRMQKQRMNESKDVSNKEEK	–	–	binds	binds

Source: paper PMC10085053
